Measurements: patent publication US7399638B2, “Prediction method for lipidosis” (Takeda Pharmaceutical Company Limited, priority 2003, dated 2008)
Read-outs that look alike come from different tables or passages of the source. Marks after values point to notes of the source that are not given here.

Experiments:
[1] = in vivo; cited from earlier work
male cynomolgus monkeys [2] = assay: Urinary PAGN/hippuric acid ratio by 1H NMR in monkeys; type: in vivo, cynomolgus monkey; details: for PAGN/hippuric acid ratio compared to the control group: cynomolgus monkey urine, gavage 7 days; for Urinary PAGN/hippuric acid ratio: male cynomolgus monkey
Protocol: (§1) Subsequently, the animals were allocated to four groups (5 animals in total) comprising 2 animals in the control group and 1 male in each treatment group, respectively.
(§2) The high-dose dosing suspension was diluted with the dispersant/solvent to prepare a low-dose dosing suspension.
Pooled urine was collected from the monkeys in the Example above under fasting for about 6 hours in the pre-dosing period (Pre), on the first day of administration (Day 0), and on days 2 and 6 of treatment period (Days 2 and 6).
^1H NMR was performed as described below. Reagents were used without purification. Heavy water (D2O) was purchased from ISOTEC. […] INC (USA).
A phosphate buffer solution was prepared as described below.
Operating conditions were set as shown below.

Crj: CD(SD)IGS rats [3] = details: male, rat, in vivo, 3 days
Protocol: The following 10 kinds of commercially available drugs were examined as the test compounds for a potential of inducing PLsis by histopathological examination and peripheral blood lymphocyte testing.
The following experiments were performed using the prematurely autopsied animals.
The high-dose dosing suspension was diluted about 3 fold and 10 fold with dispersant/solvent to prepare intermediate- and low-dose dosing suspensions. […] [For LD50, the Summary Basis of Approval (FDA) for each drug was referenced to.]
The animals were examined for mortality, general conditions, body weight, food consumption and the like using PM4800 (Mettler) and EB3200D (Shimadzu Corporation).
Hematological examination was performed for parameters such as RBC count, hematocrit, hemoglobin concentration, mean corpuscular hemoglobin (MCH), mean corpuscular hemoglobin concentration (MCHC), mean corpuscular volume (MCV), platelet count, WBC count, reticulocyte count, differential WBC, and vacuolated lymphocyte ratio (for PLsis-inducing compounds only) using ADVIA120 (Bayer Medical Ltd.) and E-4000 (Sysmex Corporation).

Crj: CD(SD)IGS rats [4] = assay: Urinary PAG/hippuric acid ratio by 1H NMR in rats; details: rat urine, 3 days, mean n = 3-4
male cynomolgus monkeys [5] = details: cynomolgus monkey, in vivo, 300 mg/kg
Protocol: Amiodarone and perhexiline were purchased from SIGMA Company.
as §1, §2
After completion of the administration, livers, kidneys, hearts, spleens, lungs, mesenteric lymph nodes, eyeballs, testes and brains were collected from all animals, and examined for histopathological changes by conventional method of optical microscopy. Additionally, blood samples were collected in the pre-dosing period, on the first day of administration, and on days 2 and 6 of treatment period, blood smear specimens were prepared, and vacuolated lymphocyte ratios were determined.

Crj: CD(SD)IGS rats [6] = details: rat urine, LC-MS/MS, 300 mg/kg/day by gavage for 7 days

## CCCCc1oc2ccccc2c1C(=O)c1cc(I)c(OCCN(CC)CC)c(I)c1 [Amiodarone]
[1]
  LD50: not less than 3000 mg/kg
Male cynomolgus monkeys [2]; 60 mg/kg
  PAGN/hippuric acid ratio compared to the control group: no significant difference
Male cynomolgus monkeys [2]; 300 mg/kg
  PAGN/hippuric acid ratio compared to the control group: increased
Male cynomolgus monkeys [2]; 60 mg/kg/day by gavage for 7 days, Day 0, 1 animal
  Urinary PAGN/hippuric acid ratio: 1.87
Male cynomolgus monkeys [2]; 60 mg/kg/day by gavage for 7 days, Day 2, 1 animal
  Urinary PAGN/hippuric acid ratio: 1.79
Male cynomolgus monkeys [2]; 60 mg/kg/day by gavage for 7 days, Day 6, 1 animal
  Urinary PAGN/hippuric acid ratio: 3.87
Male cynomolgus monkeys [2]; 60 mg/kg/day by gavage for 7 days, Pre (pre-dosing period), 1 animal
  Urinary PAGN/hippuric acid ratio: 1.05
Male cynomolgus monkeys [2]; 300 mg/kg/day by gavage for 7 days, Day 0, 1 animal
  Urinary PAGN/hippuric acid ratio: 1.11
Male cynomolgus monkeys [2]; 300 mg/kg/day by gavage for 7 days, Day 2, 1 animal
  Urinary PAGN/hippuric acid ratio: 3.04
Male cynomolgus monkeys [2]; 300 mg/kg/day by gavage for 7 days, Day 6, 1 animal
  Urinary PAGN/hippuric acid ratio: ↑17.62
Male cynomolgus monkeys [2]; 300 mg/kg/day by gavage for 7 days, Pre (pre-dosing period), 1 animal
  Urinary PAGN/hippuric acid ratio: 1.22
Crj: CD(SD)IGS rats [3]; 100 mg/kg/day
  Mean vacuolated lymphocyte ratio: 1%
Crj: CD(SD)IGS rats [3]; 300 mg/kg/day
  Mean vacuolated lymphocyte ratio: 33%
Crj: CD(SD)IGS rats [3]; 1000 mg/kg/day
  Mean vacuolated lymphocyte ratio: 40%
Crj: CD(SD)IGS rats [4]; 100 mg/kg/day by gavage
  PAG + hippuric acid/creatinine: 1.69
  PAG/PAG + hippuric acid: 13.68%
  PAG/creatinine (first term of PAG + hippuric acid): 0.23
  PAG/hippuric acid: 16.12%
Crj: CD(SD)IGS rats [4]; 300 mg/kg/day by gavage
  PAG + hippuric acid/creatinine: 1.56
  PAG/PAG + hippuric acid: 33.94* %
  PAG/creatinine (first term of PAG + hippuric acid): 0.53
  PAG/hippuric acid: 52.41* %
  hippuric acid/creatinine (second term of PAG + hippuric acid): 1.04
Crj: CD(SD)IGS rats [4]; 1000 mg/kg/day by gavage
  PAG + hippuric acid/creatinine: 1.32
  PAG/PAG + hippuric acid: 53.66* %
  PAG/creatinine (first term of PAG + hippuric acid): 0.71
  PAG/hippuric acid: 127.48* %
  hippuric acid/creatinine (second term of PAG + hippuric acid): 0.60
Male cynomolgus monkeys [5]
  Vacuolated lymphocyte ratio: increase
Crj: CD(SD)IGS rats [6]
  PAG/hippuric acid concentration ratio compared to the control group: increased
Crj: CD(SD)IGS rats [6]; mean ± SD n = 4
  PAG/hippuric acid ratio: 0.8850 ± 0.4434
